# Data as given in PubChem BioAssay AID1053208 (Peter MacCallum Cancer Centre, 2014).
# Screen: 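Find knock-downs that sensitise mouse osteosarcoma cells to doxorubicin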 (primary screen)
# System: mouse osteosarcoma cells, early-passage culture from an engineered mouse model of fibroblastic bone tumour
# Reagents: siRNA pool against mouse genes, 40 nM
# Duration: about 120 h (48 h before drug, then 72 h with drug)
# Challenge: doxorubicin 100 nM for 72 h, roughly 30-40% inhibitory dose
# Measured: 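Luminescent ATP signal taken as viability with or without 100 nM doxorubicin for 72 h; mean of two wells set against non-targeting siRNA and turned into robust z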
# Scale: viability z-score with doxorubicin: higher = more viable cells under doxorubicin; viability z-score without drug: higher = more viable cells with knock-down alone
# Call rule: 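Called active if knock-down leaves viability unchanged without drug (z within -2 to 2) but lowers it with doxorubicin (z at or under -2)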
# In all, the deposit lists about 17,000 reagents; below is a part drawn at random. Over the whole deposit, 788 (4.7%) got an active call. 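Calls rest on z-score classes alone; an extra cut-off of viability at most 70% of control was not applied to them.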 Not all columns of the deposit are shown. Reagent sequences are not shown.
target gene,combined z-score class,viability z-score with doxorubicin,viability z-score without drug,Outcome
Or4a79 (GeneID 404331),low cell count with doxorubicin only,-2.02,-1.52,active
Rhox4e (GeneID 194856),no change with or without drug,-1.12,-0.17,inactive
Kcnh5 (GeneID 238271),no change with or without drug,-1.46,-1.35,inactive
Dsc1 (GeneID 13505),no change with or without drug,1.46,1.52,inactive
C1galt1c1 (GeneID 59048),no change with or without drug,-1.12,-1.01,inactive
Slc6a9 (GeneID 14664),high cell count with and without drug,2.02,2.53,inactive
Cd7 (GeneID 12516),no change with or without drug,-0.56,-0.34,inactive

Reformatted: results already given.
{"target gene": "Kcnh5 (GeneID 238271)", "combined z-score class": "no change with or without drug", "viability z-score with doxorubicin": -1.46, "viability z-score without drug": -1.35, "Outcome": "inactive"}
{"target gene": "Dsc1 (GeneID 13505)", "combined z-score class": "no change with or without drug", "viability z-score with doxorubicin": 1.46, "viability z-score without drug": 1.52, "Outcome": "inactive"}
{"target gene": "C1galt1c1 (GeneID 59048)", "combined z-score class": "no change with or without drug", "viability z-score with doxorubicin": -1.12, "viability z-score without drug": -1.01, "Outcome": "inactive"}

The listing continues:
target gene,combined z-score class,viability z-score with doxorubicin,viability z-score without drug,Outcome
Slc43a3 (GeneID 58207),no change with or without drug,-0.11,-0.17,inactive
Zfp326 (GeneID 54367),high cell count with and without drug,3.04,2.02,inactive
Myh7 (GeneID 140781),no change with or without drug,-0.11,0.17,inactive
Sec61g (GeneID 20335),no change with or without drug,0,-1.69,inactive
Tbc1d10a (GeneID 103724),high cell count with and without drug,2.36,2.02,inactive
Slco1a5 (GeneID 108096),no change with or without drug,0.9,-0.17,inactive
2310022B05Rik (GeneID 69551),no change with or without drug,1.35,0.34,inactive
St8sia3 (GeneID 20451),no change with or without drug,-0.22,-0.51,inactive
Hsf4 (GeneID 26386),no change with or without drug,-0.9,-1.18,inactive
Cdh15 (GeneID 12555),no change with or without drug,0.79,-0.51,inactive
Pum2 (GeneID 80913),no change with or without drug,0.45,0.84,inactive
Hsd17b7 (GeneID 15490),no change with or without drug,1.12,-0.34,inactive
TRDN,no change with or without drug,1.46,0.84,inactive
